Laboratory results from publication PMC11404752.
No constants are given. Whether binding was seen depends on the method and setting. For part of these data: Binding seen in cells or lysates may run through a third protein. Some entries that bind do so weakly or less than the wild type.

The chains behind the UniProt entries cited, without tags or fusion partners. Where a name states a change or a piece, a line headed by the entry shows the natural chain unless it says otherwise. A line that says so, or that is headed by a name, gives the form on record, which may keep a tag or linker.
soluble Fms-like tyrosine kinase-1 (human (endogenous in serum)) (P17948, form named): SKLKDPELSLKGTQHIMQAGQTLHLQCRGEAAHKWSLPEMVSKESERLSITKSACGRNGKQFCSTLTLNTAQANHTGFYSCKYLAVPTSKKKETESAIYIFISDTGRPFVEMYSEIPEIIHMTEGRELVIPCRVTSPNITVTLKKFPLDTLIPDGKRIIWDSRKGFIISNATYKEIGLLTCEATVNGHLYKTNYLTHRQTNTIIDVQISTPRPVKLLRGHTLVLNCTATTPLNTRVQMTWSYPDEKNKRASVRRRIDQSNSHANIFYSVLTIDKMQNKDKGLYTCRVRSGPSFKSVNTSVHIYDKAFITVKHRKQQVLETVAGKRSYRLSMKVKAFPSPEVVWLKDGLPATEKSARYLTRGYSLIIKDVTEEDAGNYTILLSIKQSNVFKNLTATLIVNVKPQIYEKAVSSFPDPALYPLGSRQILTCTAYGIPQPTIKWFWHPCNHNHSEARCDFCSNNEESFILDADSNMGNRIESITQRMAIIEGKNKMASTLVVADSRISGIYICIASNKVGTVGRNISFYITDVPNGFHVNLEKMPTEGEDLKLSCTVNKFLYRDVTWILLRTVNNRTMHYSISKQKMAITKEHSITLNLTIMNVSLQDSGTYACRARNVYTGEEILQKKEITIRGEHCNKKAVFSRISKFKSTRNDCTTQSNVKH
UniProt P21926: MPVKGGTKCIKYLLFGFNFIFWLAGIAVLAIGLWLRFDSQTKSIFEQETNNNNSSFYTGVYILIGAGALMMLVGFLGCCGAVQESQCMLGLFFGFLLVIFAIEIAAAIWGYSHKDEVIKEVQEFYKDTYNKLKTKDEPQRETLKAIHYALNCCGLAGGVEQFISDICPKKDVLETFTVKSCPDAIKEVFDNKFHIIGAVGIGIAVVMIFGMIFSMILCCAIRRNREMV

How the values were obtained:
[1] = target: soluble Fms-like tyrosine kinase-1 (human (endogenous in serum)) (UniProt P17948); assay: co-IP; anti-PlGF or anti-Flt-1 (2 ug/mL) added to a serum pool for 30 minutes at room temperature, captured by Dynabeads Streptavidin, immunoblotting of PlGF, sFlt-1, CD9, ApoA-I and ApoB
[2] = target: T1, placental growth factor (human (endogenous in serum)) (UniProt P49763); assay: as above
T1 sequence: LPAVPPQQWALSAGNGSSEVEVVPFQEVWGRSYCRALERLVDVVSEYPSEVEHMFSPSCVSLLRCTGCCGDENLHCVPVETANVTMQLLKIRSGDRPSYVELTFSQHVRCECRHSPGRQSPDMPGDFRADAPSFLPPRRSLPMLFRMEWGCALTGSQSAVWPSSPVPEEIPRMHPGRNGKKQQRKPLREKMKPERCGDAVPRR

[3] = target: soluble Fms-like tyrosine kinase-1 (human (endogenous in serum)) (UniProt P17948); assay: ELISA; free versus total PlGF in FPLC fractions of serum; total PlGF measured after heating the samples at 70 °C for 10 minutes to destroy sFlt-1

**Q.** Which binding [1] does the source give for CD9 (from UniProt P21926 1-228) here?
**A.** Its binding is “binds”.

**Q.** What about the binding [2] of the same molecule?
**A.** The binding was “binds”.

B1: placental growth factor (ligand, UniProt P49763 19-221)
chain: LPAVPPQQWALSAGNGSSEVEVVPFQEVWGRSYCRALERLVDVVSEYPSEVEHMFSPSCVSLLRCTGCCGDENLHCVPVETANVTMQLLKIRSGDRPSYVELTFSQHVRCECRHSPGRQSPDMPGDFRADAPSFLPPRRSLPMLFRMEWGCALTGSQSAVWPSSPVPEEIPRMHPGRNGKKQQRKPLREKMKPERCGDAVPRR
**Q.** Which binding [3] does the source give for B1 here?
**A.** The binding was “binds”.
